Results: the supplement of paper PMC10849652
The other results are listed elsewhere or left out.

By UniProt entry, the sequences of proteins in these tests, tags left out. Where a name states a change or a piece, a line headed by the entry shows the natural chain unless it says otherwise.
UniProt Q8TED9: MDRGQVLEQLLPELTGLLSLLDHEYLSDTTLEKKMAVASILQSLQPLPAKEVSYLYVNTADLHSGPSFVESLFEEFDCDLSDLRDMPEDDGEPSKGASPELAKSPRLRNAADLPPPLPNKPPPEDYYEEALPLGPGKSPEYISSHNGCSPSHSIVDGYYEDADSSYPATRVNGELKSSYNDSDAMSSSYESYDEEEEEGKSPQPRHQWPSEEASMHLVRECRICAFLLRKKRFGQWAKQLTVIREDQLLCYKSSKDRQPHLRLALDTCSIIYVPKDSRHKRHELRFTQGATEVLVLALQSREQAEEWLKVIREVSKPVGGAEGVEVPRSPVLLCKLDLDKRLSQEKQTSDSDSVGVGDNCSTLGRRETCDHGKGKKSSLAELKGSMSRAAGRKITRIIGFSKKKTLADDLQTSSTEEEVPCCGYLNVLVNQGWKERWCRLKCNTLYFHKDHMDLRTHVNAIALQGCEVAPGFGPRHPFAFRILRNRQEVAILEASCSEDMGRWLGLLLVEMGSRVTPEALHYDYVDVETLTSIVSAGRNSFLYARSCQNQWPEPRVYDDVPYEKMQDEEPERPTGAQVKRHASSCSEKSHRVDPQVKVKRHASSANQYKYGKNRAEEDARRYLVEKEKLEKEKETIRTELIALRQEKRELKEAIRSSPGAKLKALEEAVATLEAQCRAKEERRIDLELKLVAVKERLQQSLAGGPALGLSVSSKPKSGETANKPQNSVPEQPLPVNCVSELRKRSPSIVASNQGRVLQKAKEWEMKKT
UniProt Q9UEY8: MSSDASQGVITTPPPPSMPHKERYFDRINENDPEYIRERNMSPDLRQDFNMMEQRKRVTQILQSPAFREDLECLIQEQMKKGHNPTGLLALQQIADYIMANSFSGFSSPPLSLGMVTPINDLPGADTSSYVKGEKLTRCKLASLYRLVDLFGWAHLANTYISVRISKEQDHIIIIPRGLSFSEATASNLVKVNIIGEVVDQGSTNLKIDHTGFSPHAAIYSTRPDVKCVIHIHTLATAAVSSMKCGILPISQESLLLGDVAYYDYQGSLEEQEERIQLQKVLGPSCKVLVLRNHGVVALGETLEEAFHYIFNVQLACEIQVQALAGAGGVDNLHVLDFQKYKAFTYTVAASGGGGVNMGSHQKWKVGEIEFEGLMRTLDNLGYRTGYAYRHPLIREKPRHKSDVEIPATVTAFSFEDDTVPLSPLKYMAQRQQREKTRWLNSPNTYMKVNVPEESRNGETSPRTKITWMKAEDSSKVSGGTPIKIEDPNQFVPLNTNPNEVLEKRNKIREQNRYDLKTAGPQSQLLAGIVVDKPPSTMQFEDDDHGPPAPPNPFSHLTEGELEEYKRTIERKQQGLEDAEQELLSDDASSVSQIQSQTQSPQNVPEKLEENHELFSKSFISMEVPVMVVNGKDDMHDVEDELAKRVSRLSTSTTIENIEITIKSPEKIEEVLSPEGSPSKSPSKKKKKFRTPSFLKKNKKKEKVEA
UniProt O60218, whole entry, looked up: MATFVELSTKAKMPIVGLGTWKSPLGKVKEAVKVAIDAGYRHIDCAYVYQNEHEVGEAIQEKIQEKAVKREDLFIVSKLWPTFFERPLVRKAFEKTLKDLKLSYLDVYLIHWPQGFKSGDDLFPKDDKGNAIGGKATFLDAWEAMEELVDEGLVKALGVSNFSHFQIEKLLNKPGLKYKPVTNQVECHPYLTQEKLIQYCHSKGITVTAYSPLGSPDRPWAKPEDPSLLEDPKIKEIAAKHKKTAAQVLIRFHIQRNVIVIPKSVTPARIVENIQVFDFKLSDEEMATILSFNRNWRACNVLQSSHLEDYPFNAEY
UniProt Q63HM1: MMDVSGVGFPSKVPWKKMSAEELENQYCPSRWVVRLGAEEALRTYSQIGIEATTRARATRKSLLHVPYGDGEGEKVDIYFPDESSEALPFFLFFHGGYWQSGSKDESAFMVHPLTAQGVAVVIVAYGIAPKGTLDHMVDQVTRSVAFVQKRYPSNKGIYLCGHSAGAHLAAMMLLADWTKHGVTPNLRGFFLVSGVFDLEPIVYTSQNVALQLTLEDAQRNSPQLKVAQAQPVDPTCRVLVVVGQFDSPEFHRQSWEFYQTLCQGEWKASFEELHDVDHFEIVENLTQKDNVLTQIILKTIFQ
UniProt Q3LIE5: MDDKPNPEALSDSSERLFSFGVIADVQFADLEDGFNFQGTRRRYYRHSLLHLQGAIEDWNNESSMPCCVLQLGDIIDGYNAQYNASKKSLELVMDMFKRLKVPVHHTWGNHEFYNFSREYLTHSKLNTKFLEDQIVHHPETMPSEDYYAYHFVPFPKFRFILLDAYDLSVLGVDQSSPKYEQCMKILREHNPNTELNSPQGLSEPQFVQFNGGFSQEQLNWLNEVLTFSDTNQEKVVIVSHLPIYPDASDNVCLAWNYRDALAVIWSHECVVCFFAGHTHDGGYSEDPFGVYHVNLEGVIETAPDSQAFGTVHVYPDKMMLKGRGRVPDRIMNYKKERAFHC
UniProt Q04771: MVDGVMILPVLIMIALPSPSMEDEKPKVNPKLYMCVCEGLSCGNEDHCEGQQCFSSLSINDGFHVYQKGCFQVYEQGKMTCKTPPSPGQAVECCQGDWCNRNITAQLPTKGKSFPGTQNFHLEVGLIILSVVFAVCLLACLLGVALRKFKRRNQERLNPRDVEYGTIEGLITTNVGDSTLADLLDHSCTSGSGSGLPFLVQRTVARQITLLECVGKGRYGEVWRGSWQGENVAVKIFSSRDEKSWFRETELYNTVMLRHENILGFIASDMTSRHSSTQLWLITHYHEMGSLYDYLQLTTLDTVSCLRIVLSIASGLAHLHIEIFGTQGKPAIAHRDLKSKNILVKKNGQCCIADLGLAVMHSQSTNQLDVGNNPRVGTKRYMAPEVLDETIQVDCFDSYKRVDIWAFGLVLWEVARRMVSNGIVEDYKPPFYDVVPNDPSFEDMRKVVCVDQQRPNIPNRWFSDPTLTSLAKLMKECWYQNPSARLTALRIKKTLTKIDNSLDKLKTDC
UniProt P51828: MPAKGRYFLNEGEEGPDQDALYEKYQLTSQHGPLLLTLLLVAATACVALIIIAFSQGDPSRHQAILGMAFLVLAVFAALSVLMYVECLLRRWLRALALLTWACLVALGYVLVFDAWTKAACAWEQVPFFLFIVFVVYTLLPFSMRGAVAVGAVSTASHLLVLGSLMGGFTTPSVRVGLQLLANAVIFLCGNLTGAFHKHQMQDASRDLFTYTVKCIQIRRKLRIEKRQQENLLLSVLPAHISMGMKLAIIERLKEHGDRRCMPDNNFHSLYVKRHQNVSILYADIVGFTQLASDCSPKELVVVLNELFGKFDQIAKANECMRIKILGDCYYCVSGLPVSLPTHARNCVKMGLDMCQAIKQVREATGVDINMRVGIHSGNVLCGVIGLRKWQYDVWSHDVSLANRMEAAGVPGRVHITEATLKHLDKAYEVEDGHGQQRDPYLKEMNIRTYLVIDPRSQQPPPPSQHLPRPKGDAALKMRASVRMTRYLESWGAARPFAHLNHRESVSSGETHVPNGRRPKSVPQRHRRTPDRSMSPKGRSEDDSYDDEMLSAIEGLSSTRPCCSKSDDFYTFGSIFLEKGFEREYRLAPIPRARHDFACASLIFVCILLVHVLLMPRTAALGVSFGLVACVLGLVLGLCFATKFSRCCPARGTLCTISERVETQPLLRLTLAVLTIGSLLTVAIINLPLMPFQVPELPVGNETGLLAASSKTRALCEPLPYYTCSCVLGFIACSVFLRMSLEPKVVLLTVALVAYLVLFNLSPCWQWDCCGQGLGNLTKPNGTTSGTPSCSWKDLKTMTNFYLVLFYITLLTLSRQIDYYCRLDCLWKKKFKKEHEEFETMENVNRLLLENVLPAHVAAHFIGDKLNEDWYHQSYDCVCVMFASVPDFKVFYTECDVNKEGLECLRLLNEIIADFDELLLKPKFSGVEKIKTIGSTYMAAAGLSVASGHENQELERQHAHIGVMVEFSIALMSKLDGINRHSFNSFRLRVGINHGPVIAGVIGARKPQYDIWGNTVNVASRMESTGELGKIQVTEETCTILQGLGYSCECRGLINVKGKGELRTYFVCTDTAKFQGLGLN
UniProt Q6RW13: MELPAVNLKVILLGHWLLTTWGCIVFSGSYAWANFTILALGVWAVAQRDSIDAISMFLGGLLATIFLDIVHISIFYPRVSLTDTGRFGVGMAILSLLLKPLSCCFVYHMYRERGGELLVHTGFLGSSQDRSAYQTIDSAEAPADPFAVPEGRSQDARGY
UniProt Q9H6R3: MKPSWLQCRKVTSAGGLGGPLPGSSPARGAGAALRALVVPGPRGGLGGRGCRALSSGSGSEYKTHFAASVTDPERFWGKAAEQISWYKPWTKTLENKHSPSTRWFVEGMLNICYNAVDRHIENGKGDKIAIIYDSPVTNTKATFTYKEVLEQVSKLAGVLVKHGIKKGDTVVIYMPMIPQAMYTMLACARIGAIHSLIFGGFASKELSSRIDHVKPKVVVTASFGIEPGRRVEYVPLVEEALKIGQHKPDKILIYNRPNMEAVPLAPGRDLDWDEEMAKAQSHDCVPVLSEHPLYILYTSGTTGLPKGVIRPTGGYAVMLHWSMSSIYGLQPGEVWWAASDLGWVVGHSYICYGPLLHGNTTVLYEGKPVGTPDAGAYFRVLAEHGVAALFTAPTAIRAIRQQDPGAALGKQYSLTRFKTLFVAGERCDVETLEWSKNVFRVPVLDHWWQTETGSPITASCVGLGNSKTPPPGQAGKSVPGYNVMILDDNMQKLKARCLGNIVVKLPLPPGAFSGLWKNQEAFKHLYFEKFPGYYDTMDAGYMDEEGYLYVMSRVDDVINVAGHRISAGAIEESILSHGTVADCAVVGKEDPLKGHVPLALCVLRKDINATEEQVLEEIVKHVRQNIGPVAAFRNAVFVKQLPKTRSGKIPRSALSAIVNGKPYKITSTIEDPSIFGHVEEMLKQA
UniProt Q96M93: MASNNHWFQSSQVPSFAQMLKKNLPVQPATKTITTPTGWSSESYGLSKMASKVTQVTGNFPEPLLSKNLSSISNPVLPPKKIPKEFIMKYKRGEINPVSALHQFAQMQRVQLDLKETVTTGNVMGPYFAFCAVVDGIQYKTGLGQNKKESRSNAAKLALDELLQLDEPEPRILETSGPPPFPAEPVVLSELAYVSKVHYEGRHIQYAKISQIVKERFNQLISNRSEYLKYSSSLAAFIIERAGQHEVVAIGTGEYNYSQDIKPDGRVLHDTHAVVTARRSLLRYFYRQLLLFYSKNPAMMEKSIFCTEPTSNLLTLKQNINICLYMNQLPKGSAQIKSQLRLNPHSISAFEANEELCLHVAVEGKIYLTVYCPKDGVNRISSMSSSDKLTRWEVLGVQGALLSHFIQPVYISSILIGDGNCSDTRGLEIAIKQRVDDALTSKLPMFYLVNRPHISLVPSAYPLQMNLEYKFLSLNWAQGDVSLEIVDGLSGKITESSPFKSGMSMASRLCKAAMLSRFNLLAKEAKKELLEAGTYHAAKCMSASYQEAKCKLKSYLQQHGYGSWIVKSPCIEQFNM
UniProt P13686: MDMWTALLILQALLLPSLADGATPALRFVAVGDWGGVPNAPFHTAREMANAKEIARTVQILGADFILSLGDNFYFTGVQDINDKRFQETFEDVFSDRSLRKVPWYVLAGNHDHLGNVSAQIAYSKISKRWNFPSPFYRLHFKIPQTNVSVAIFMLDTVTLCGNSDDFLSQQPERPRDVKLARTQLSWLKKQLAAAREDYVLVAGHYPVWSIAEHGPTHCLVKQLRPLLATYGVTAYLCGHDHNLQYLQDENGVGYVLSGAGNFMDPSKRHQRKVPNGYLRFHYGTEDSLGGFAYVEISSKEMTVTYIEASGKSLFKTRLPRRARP
UniProt Q13155: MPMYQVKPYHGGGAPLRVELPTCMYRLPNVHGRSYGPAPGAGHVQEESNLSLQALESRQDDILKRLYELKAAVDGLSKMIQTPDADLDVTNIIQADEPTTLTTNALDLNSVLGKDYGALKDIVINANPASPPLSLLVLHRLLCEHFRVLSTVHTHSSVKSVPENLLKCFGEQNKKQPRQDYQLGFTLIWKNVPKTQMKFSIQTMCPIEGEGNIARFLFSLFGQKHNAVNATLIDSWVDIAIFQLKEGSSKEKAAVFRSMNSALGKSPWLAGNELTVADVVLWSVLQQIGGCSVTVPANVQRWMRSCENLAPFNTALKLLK
UniProt Q9BUB4: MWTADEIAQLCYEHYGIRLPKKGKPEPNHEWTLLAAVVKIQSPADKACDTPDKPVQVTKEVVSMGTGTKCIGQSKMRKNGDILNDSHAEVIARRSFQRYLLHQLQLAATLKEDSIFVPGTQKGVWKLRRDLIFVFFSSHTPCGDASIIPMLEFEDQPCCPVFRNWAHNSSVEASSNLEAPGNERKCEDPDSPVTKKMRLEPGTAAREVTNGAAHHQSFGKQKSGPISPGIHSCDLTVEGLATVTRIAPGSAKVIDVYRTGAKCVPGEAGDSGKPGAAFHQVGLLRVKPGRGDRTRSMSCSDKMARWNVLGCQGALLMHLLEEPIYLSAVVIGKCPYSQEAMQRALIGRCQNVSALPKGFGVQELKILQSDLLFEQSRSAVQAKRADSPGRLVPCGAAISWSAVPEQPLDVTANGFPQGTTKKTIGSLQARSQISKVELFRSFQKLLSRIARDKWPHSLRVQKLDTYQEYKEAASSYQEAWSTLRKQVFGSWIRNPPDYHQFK

How the values were obtained:
Test in all cases: log2 fold change, soluble protein after heating vs DMSO (PISA); higher = thermal stabilisation; K562 lysate, 10 uM; active = over 0.2 and 3.5 SD of the protein, either way, in both replicates (recomputed)
[1] = compound: C#Cc1cccc(Nc2ncnc3cc(OCCOC)c(OCCOC)cc23)c1 [erlotinib]
Outline: (§1)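 Values give the log-two fold change in thermal stability against solvent controls, from duplicates. Crude K562 extract at 1 mg/mL protein, made by dounce homogenisation in PBS pH 7.4 with 1 mM MgCl2, was treated with 10 μM compound for 30 min. After 3 min heating across 48°C-58°C, aliquots were pooled, adjusted to 0.5% NP-40 at 4°C and centrifuged at 21,000xg for 90 min. The supernatant was measured by TMTpro 16plex LC-MS/MS with channel sums equalised.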

[2] = compound: C1=CC(=CC=C1C2=NC3=C(N2)C=C(C=C3)C(=O)N)OC4=CC=C(C=C4)Cl
Outline: as §1

[3] = compound: C1=CC2=NC=CN=C2C=C1/C=C/3\C(=O)NC(=O)S3
Outline: as §1

[4] = compound: C1CCN(C1)C(=O)NC2=CC=CC(=C2)NC3=NC=C(C(=N3)NCCC4=CN=CN4)Br
Outline: as §1

[5] = compound: C1CN(CCC1(CC2=CC=C(C=C2)Cl)N)C3=NC=NC4=C3C=CN4
Outline: as §1

[6] = compound: C=CC(=O)N1CCC[C@@H](n2nc(-c3ccc(Oc4ccccc4)cc3)c3c(N)ncnc32)C1 [ibrutinib]
Outline: as §1

[7] = compound: CC(=O)c1cnc2ccc(-c3cc(Cl)c(O)c(Cl)c3)nc2c1N[C@H]1CC[C@H](CN(C)C)CC1
Outline: as §1

[8] = compound: CC(C)C1=C2N=C(C=C(N2N=C1)NCC3=CC=CC=C3)NCCCCCCN
Outline: as §1

[9] = compound: CC1=C(C2=C(C=C1)C(=O)C3=CC=CC=C3N2CCCN)C
Outline: as §1

[10] = compound: CC1=C(C=C(C=C1)NC(=O)C2=CC(=CC=C2)C(C)(C)C#N)NC3=CC4=C(C=C3)N=CN(C4=O)C
Outline: as §1

[11] = compound: CC1=CC=C(C=C1)SC2=C3C=C(SC3=CN=C2)C(=O)N
Outline: as §1

[12] = compound: CC1=C(C(CC(=O)N1)C2=CC=C(C=C2)C(F)(F)F)C(=O)NC3=C(C=C4C(=C3)C=NN4)F
Outline: as §1

[13] = compound: C1=CC=C(C=C1)C2=NC(=C(N2)C3=CC=NC=C3)C4=CC(=C(C=C4)Cl)O
Outline: as §1

[14] = compound: C1COCCN1CCN2C3=CC=CC=C3N=C2NC(=O)C4=CC(=CC=C4)[N+](=O)[O-] [IRAK-1-4 Inhibitor I]
Outline: as §1

[15] = compound: CC(C)(C)Cn1c(N)nc2ccc(-c3[nH]c(C(C)(C)C)nc3-c3ccc(F)cc3)nc21 [ralimetinib]
Outline: as §1

[16] = compound: CC(C)(O)CC(=O)NCCn1ccc2ncnc(Nc3ccc(Oc4cccc(C(F)(F)F)c4)c(Cl)c3)c21
Outline: as §1

[17] = compound: CC1=C(C=C(C=C1)NC(=O)C2=CC(=CC=C2)N(C)C)NC(=O)C3=CC=C(C=C3)O
Outline: as §1

[18] = compound: C/C(=N\NC(=O)C1=CC(=CC=C1)S(=O)(=O)N2CCOCC2)/C3=C(C=CC(=C3)Cl)O
Outline: as §1

[19] = compound: C1=CC2=C(C=CC(=C2)/C=C\3/C(=O)NC(=NCC4=CC=CS4)S3)N=C1
Outline: as §1

[20] = compound: C1=CC=C2C(=C1)C3=NNC4=CC=CC(=C43)C2=O
Outline: as §1

Measured: log2 fold change

AFAP1L1 (UniProt Q8TED9)
inactive: [1] 0.015 | [2] 0.044 | [3] -0.089 | [4] -0.072 | [5] 0.114 | [6] 0.098 | [7] -0.099 | [8] 0.047 | [9] -0.032 | [10] -0.136 | [11] -0.116

AKR7L (UniProt Q8NHP1)
inactive: [7] 0.027 | [12] 0.121 | [9] 0.074 | [10] 0.083 | [11] 0.027

ADD3 isoform 2 (UniProt Q9UEY8)
inactive: [10] -0.004

AKR1B10 (UniProt O60218)
inactive: [13] -0.792 | [14] -0.929 | [15] 1.16 | [16] 0.981 | [9] 1.93 | [17] 1.48

AHSP (UniProt Q9NZD4)
inactive: [18] -0.016 | [19] -0.001 | [3] -0.036 | [20] -0.108 | [4] 0.049 | [5] -0.055 | [6] -0.009 | [7] -0.069 | [12] 0.004 | [11] 0.124

ADK, A0A5F9ZH76
inactive: [3] 0 | [6] 0.168 | [7] 0.005 | [12] -0.156 | [11] 0

ADCK5 (UniProt Q3MIX3)
inactive: [4] 0.112 | [5] 0.119 | [7] -0.084 | [12] -0.008 | [9] -0.116 | [10] 0.031 | [11] -0.016

AFMID isoform 2 (UniProt Q63HM1)
inactive: [18] 0.056 | [19] 0.023 | [13] -0.007 | [20] -0.087 | [4] -0.056 | [5] -0.083 | [14] -0.092 | [15] 0.12 | [16] 0.065 | [10] 0.192 | [17] 0.028

ADPRM (UniProt Q3LIE5)
inactive: [18] -0.101 | [19] -0.172 | [3] 0.081 | [13] 0.116 | [20] -0.051 | [4] 0.034 | [5] 0.052 | [14] -0.025 | [6] -0.418 | [15] -0.035 | [16] -0.128 | [10] -0.39 | [17] 0.078

AHDC1 (UniProt Q5TGY3)
inactive: [3] 0.278 | [6] 0

AFDN (UniProt H0Y948)
inactive: [10] -0.065

AGO2 (UniProt E5RJY2)
inactive: [7] -0.036 | [12] -0.252 | [11] -0.015

ACTB, A0A2R8YEA7
inactive: [18] -0.059 | [19] -0.157 | [20] 0.215 | [7] -0.073 | [12] -0.024 | [11] 0.174

ACTG1 (UniProt K7EM38)
inactive: [4] -0.162 | [5] -0.155 | [7] -0.044 | [11] 0.152

ACSS1 (UniProt Q9NUB1)
inactive: [3] -0.034 | [13] 0.166 | [4] -0.069 | [5] 0.067 | [14] 0.091 | [6] 0.074 | [7] -0.073 | [15] -0.13 | [16] -0.071 | [12] -0.134 | [9] -0.044 | [10] 0.024 | [17] 0.06 | [11] -0.198

AJUBA (UniProt Q96IF1)
inactive: [9] -0.183 | [10] 0.217

ACVR1 (UniProt Q04771)
inactive: [3] 0.074 | [6] -0.047 | [12] -0.152 | [9] -0.02

ACTN4 (UniProt H7C144)
inactive: [13] -0.185 | [14] 0.051 | [15] 0.079 | [16] -0.017 | [9] -0.064 | [17] 0.025

ACTN4 (UniProt K7EJH8)
inactive: [3] -0.026 | [13] 0.012 | [4] 0 | [5] -0.087 | [14] 0.064 | [6] 0.146 | [7] 0.044 | [15] -0.024 | [16] 0.027 | [12] -0.096 | [9] -0.061 | [10] 0.064 | [17] 0.007 | [11] -0.052

ADCK1 (UniProt Q86TW2)
inactive: [18] -0.243 | [19] 0.128 | [20] 0.066 | [4] -0.122 | [5] 0.146

ADCY7 (UniProt P51828)
inactive: [1] -0.017 | [2] 0.174 | [8] -0.159 | [12] 0.083 | [9] -0.27

AGTRAP isoform 2 (UniProt Q6RW13)
inactive: [3] -0.07 | [6] 0.07 | [7] -0.121 | [11] 0.005

AFDN (UniProt A8MQ02)
inactive: [18] 0.251 | [19] -0.047 | [20] 0.123 | [7] 0.085 | [11] 0.018

ACOX3 (UniProt O15254)
inactive: [3] -0.081 | [4] -0.253 | [5] 0.068 | [6] -0.084 | [9] 0.087

ACSS3 (UniProt Q9H6R3)
inactive: [3] -0.046 | [6] 0.041

ACTB (UniProt C9JTX5)
inactive: [18] 0.054 | [19] -0.064 | [3] -0.24 | [20] 0.116 | [6] 0.198 | [7] 0.101 | [12] 0.063 | [9] -0.094 | [10] -0.11 | [11] 0.112

AHCTF1 isoform 2 (UniProt Q8WYP5)
inactive: [1] 0.086 | [2] -0.029 | [13] 0.058 | [14] 0.038 | [7] -0.023 | [15] -0.088 | [16] 0 | [8] 0.05 | [17] 0.057 | [11] -0.029

ADAD1 (UniProt Q96M93)
inactive: [18] 0.629 | [19] -0.016 | [13] -0.058 | [20] 0.034 | [4] -0.097 | [5] -0.103 | [14] 0 | [7] -0.032 | [15] 0.005 | [16] -0.092 | [9] -0.015 | [17] 0.015 | [11] -0.066

ACTB, A0A2R8YGF8
inactive: [18] 0.791 | [19] 0.753 | [3] -0.107 | [20] -0.112 | [6] -0.037

3 successive records from above, quoted:
AHCTF1 isoform 2 (UniProt Q8WYP5)
inactive: [1] 0.086 | [2] -0.029 | [13] 0.058 | [14] 0.038 | [7] -0.023 | [15] -0.088 | [16] 0 | [8] 0.05 | [17] 0.057 | [11] -0.029

ADAD1 (UniProt Q96M93)
inactive: [18] 0.629 | [19] -0.016 | [13] -0.058 | [20] 0.034 | [4] -0.097 | [5] -0.103 | [14] 0 | [7] -0.032 | [15] 0.005 | [16] -0.092 | [9] -0.015 | [17] 0.015 | [11] -0.066

ACTB, A0A2R8YGF8
inactive: [18] 0.791 | [19] 0.753 | [3] -0.107 | [20] -0.112 | [6] -0.037

(further entries)

ACP5 (UniProt P13686)
inactive: [1] 0.077 | [2] -0.552 | [8] 0.064

AFM (UniProt P43652)
inactive: [18] 0.026 | [19] -0.05 | [20] 0.049 | [4] 0.086 | [5] 0.042

AIMP2 isoform 2 (UniProt Q13155)
inactive: [3] 0.056 | [13] 0.061 | [14] 0.006 | [6] -0.28 | [7] 0.064 | [15] 0.061 | [16] -0.036 | [10] 0.089 | [17] 0.023 | [11] 0

ACTB (UniProt C9JUM1)
inactive: [3] -0.474 | [6] 0.034 | [7] 0.095 | [12] 0.114 | [11] 0.146

ADCY3 (UniProt O60266)
inactive: [1] 0.011 | [2] 0.211 | [13] 0.089 | [14] -0.05 | [15] -0.083 | [16] -0.037 | [8] 0.367 | [9] 0.075 | [17] 0.011

ADAT1 (UniProt Q9BUB4)
inactive: [3] -0.05 | [6] 0.087
